# According to PubChem BioAssay AID248 (DTP/NCI, 2004):
# The list shows only some results of the screen, not a fair sample: it is rich in T/C values a quarter to a half above the control, in often repeated tests (any T/C) and in doses without a T/C. Other doses and runs of a compound stand elsewhere. T/C: endpoint of the treated group in % of that of the vehicle group. Some entries give survivors of the animals treated and no T/C: the source holds a T/C of zero for them, seemingly a mark for toxic or unscored doses. Some doses without a T/C left all or most animals alive at the check, yet need not have been tolerated: survival well below the control is almost never listed, so the zero probably covers shortened survival too. Counts of survivors are from the toxicity check (mostly the fifth day) where no day follows; animals may have died later. Schedules are NCI's codes, read here as Q, the interval in days (D) or hours (H), X, the number of doses. Some schedule codes hold Z or #, which are not explained here. Where survival is the endpoint, this PubChem deposit counts one and a half times the control or more as active, and values a quarter to a half above the control carry no call in these data; other NCI protocols may use other cut-offs.
# Tested on: L1210 leukemia ip in BDF1 mice, survival T/C
# Test: NCI In Vivo Anticancer Drug Screen. Data for tumor model L1210 Leukemia (intraperitoneal) in B6D2F1 (BDF1) mice
# Conditions: higher T/C = longer survival; for survivor count: T/C endpoint: mean survival time
# [1] = dose: 300.0 mg/kg/injection, schedule: Q01DX001 (ip), vehicle: other
# [2] = dose: 400.0 mg/kg/injection, schedule: Q04DX002 (ip), vehicle: Klucel (hydroxypropylcellulose) (HPC)
# [3] = dose: 200.0 mg/kg/injection, schedule: Q04DX003 (ip), vehicle: saline with Tween-80
smiles,measurement,setting,value
CN1CCC(CN2c3ccccc3Sc3ccccc32)CC1,survivor count,"dose: 50.0 mg/kg/injection, schedule: Q01DX009 (ip), vehicle: saline",3 of 6
same,survivor count,"dose: 100.0 mg/kg/injection, schedule: Q01DX009 (ip), vehicle: saline",4 of 6
same,survivor count,"dose: 100.0 mg/kg/injection, schedule: Q04DX003 (ip), vehicle: saline",5 of 6
same,survivor count,"dose: 200.0 mg/kg/injection, schedule: Q01DX009 (ip), vehicle: saline",1 of 6
same,survivor count,"dose: 400.0 mg/kg/injection, schedule: Q01DX001 (ip), vehicle: saline",0 of 6
O=[N+]([O-])c1ccc(C[N+]2(CCC[N+]3(Cc4ccc([N+](=O)[O-])cc4)CCCC3)CCCC2)cc1,survivor count,"dose: 37.5 mg/kg/injection, schedule: Q01DX001 (ip), vehicle: other",3 of 6
same,survivor count,"dose: 75.0 mg/kg/injection, schedule: Q01DX001 (ip), vehicle: other",0 of 6
same,survivor count,"dose: 150.0 mg/kg/injection, schedule: Q01DX001 (ip), vehicle: other",0 of 6
same,survivor count,[1],1 of 6
CN(C)Cc1cc(C(C)(C)C)ccc1-c1ccc(C(C)(C)C)cc1CN(C)C,survivor count,"dose: 100.0 mg/kg/injection, schedule: Q01DX009 (ip), vehicle: gum acacia",0 of 6
same,survivor count,"dose: 200.0 mg/kg/injection, schedule: Q01DX009 (ip), vehicle: gum acacia",0 of 6
same,survivor count,"dose: 400.0 mg/kg/injection, schedule: Q01DX009 (ip), vehicle: gum acacia",0 of 6
CC1=COC(C)(C2NC(C)CC(C)(C)N2)CC1 (centres undefined),survivor count,"dose: 66.0 mg/kg/injection, schedule: Q01DX Z (ip), vehicle: methylcellulose (MC)",3 of 6
N#C/C(=C/c1ccc(Cl)cc1)C(=O)O,survivor count,[2],0 of 3
N=c1c2ncn(Cc3cccc(C(F)(F)F)c3)c2ncn1O,survivor count,"dose: 4.6 mg/kg/injection, schedule: Q01DX009 (ip), vehicle: Klucel (hydroxypropylcellulose) (HPC)",3 of 6
same,survivor count,"dose: 6.25 mg/kg/injection, schedule: Q04DX003 (ip), vehicle: Klucel (hydroxypropylcellulose) (HPC)",1 of 6
same,survivor count,"dose: 7.0 mg/kg/injection, schedule: Q01DX009 (ip), vehicle: Klucel (hydroxypropylcellulose) (HPC)",2 of 6
same,survivor count,"dose: 10.0 mg/kg/injection, schedule: Q01DX009 (ip), vehicle: Klucel (hydroxypropylcellulose) (HPC)",0 of 6
same,survivor count,"dose: 12.5 mg/kg/injection, schedule: Q04DX003 (ip), vehicle: Klucel (hydroxypropylcellulose) (HPC)",0 of 6
same,survivor count,"dose: 25.0 mg/kg/injection, schedule: Q04DX003 (ip), vehicle: Klucel (hydroxypropylcellulose) (HPC)",0 of 6
same,survivor count,"dose: 50.0 mg/kg/injection, schedule: Q04DX003 (ip), vehicle: Klucel (hydroxypropylcellulose) (HPC)",1 of 6
O=CCC(O)C(O)C(O)CO (centres undefined),T/C,"T/C endpoint: median survival time, dose: 125.0 mg/kg/injection, schedule: Q01DX009 (ip), vehicle: saline",131 % of control
CN1CCc2cc3c(cc2C(=O)Cc2ccc4c(c2C1)OCO4)OCO3,survivor count,"dose: 200.0 mg/kg/injection, schedule: Q01DX001 (ip), vehicle: carboxymethylcellulose (CMC)",0 of 4
same,survivor count,[3],0 of 6
same,survivor count,"dose: 400.0 mg/kg/injection, schedule: Q01DX001 (ip), vehicle: carboxymethylcellulose (CMC)",0 of 4
CC12C=CC(O1)C1C(=O)OC(=O)C12 (centres undefined),survivor count,[1],0 of 6
N#CCn1c(C(F)(F)F)nc2nc(Cl)c(Cl)nc21,survivor count,[3],5 of 6
same,survivor count,"dose: 400.0 mg/kg/injection, schedule: Q04DX003 (ip), vehicle: saline with Tween-80",2 of 6
CC(C)Nc1ccc(O)cc1,survivor count,[2],3 of 3
